PubChem BioAssay AID1224830 | NIAID | 2016
Test: 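Genes whose knock-down alters the TNF-alpha reporter response to LPS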 (primary screen). Cells: human THP-1 monocytic leukaemia cells, TNF dual-luciferase reporter clone, PMA-differentiated to macrophage-like cells. Reagent: siRNA pool against human genes, 50 nM. Time to read-out: LPS for 4 h, given about 3 days after siRNA transfection. Challenge: bacterial LPS (TLR4 ligand), 10 ng/ml. Read-out: 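Ratio of firefly to renilla light, scaled to the plate median and expressed as a robust z-score per replicate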. Direction: TNF reporter robust z-score: higher = stronger TNF reporter response to LPS. Rule for the call: 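a well is active when its z-score exceeds 2.8 or falls below -1.5; control wells carry no call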.
In all, the deposit lists about 18,000 reagents; below is a random part of them. About 2,900 of them (16%) count as active. 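Calls are made per well; low scores hint the gene aids the LPS response, high scores that it dampens it.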 Repeated entries: four replicate wells of each siRNA pool.

no.	Gene	TNF reporter robust z-score	outcome
1	CFDP1	-1.36	inactive
2	CFDP1	-1.12	inactive
3	CFDP1	-1.49	inactive
4	CFDP1	-1.11	inactive
5	ST6GALNAC5	-0.7	inactive
6	ST6GALNAC5	-0.26	inactive
7	ST6GALNAC5	-0.44	inactive
8	ST6GALNAC5	-0.5	inactive
9	FOXE3	-0.58	inactive
10	FOXE3	0.59	inactive
11	FOXE3	0.05	inactive
12	FOXE3	0.91	inactive
13	COPA	-0.53	inactive
14	COPA	-0.18	inactive
15	COPA	-0.52	inactive
16	COPA	0.46	inactive
17	OVGP1	0.37	inactive
18	OVGP1	0.31	inactive
19	OVGP1	-0.07	inactive
20	OVGP1	-0.31	inactive
21	FGFR2	1.62	inactive
22	FGFR2	20.1	active
23	FGFR2	1.45	inactive
24	FGFR2	1.15	inactive
25	SLC12A8	-0.95	inactive
26	SLC12A8	-1.43	inactive
27	SLC12A8	-1.13	inactive
28	SLC12A8	-0.64	inactive
29	MACROD1	-0.42	inactive
30	MACROD1	-0.4	inactive
31	MACROD1	0.26	inactive
32	MACROD1	0.83	inactive
33	UQCRQ	-0.3	inactive
34	UQCRQ	0.13	inactive
35	UQCRQ	0.37	inactive
36	UQCRQ	0.31	inactive
37	BAG4	-0.44	inactive
38	BAG4	0.95	inactive
39	BAG4	-1.13	inactive
40	BAG4	0.5	inactive
41	TSNAX	0	inactive
42	TSNAX	0.8	inactive
43	TSNAX	-0.2	inactive
44	TSNAX	0.94	inactive
45	ZNF593	0.43	inactive
46	ZNF593	0.38	inactive
47	ZNF593	-1.21	inactive
48	ZNF593	-0.69	inactive
49	CD22	0.47	inactive
50	CD22	0.77	inactive
51	CD22	1.17	inactive
52	CD22	0.13	inactive
53	LRRC46	-1.57	active
54	LRRC46	-1.29	inactive
55	LRRC46	-1.17	inactive
56	LRRC46	-1.59	active
57	CLEC4M	1.63	inactive
58	CLEC4M	2.28	inactive
59	CLEC4M	1.74	inactive
60	CLEC4M	1.21	inactive
61	DDX21		inactive
62	DDX21	1.2	inactive
63	DDX21	0.94	inactive
64	DDX21	0.78	inactive
65	DDX21	1.02	inactive
66	KRTAP19-1	0.44	inactive
67	KRTAP19-1	0.4	inactive
68	KRTAP19-1	-0.05	inactive
69	GOSR1	0.17	inactive
70	GOSR1	0.61	inactive
71	GOSR1	-0.28	inactive
72	GOSR1	-1	inactive
73	GZMK	0.06	inactive
74	GZMK	1.07	inactive
75	GZMK	0.43	inactive
76	GZMK	0.53	inactive
77	POLE3	-0.09	inactive
78	POLE3	0.29	inactive
79	POLE3	0.2	inactive
80	POLE3	0.32	inactive
81	MYEF2	-0.29	inactive
82	MYEF2	0.41	inactive
83	MYEF2	0.16	inactive
84	MYEF2	0.12	inactive
85	ZBTB4	-0.52	inactive
86	ZBTB4	-1.27	inactive
87	ZBTB4	-1.22	inactive
88	ZBTB4	-1.37	inactive
89	MAJIN	-0.65	inactive
90	MAJIN	-1.06	inactive
91	MAJIN	-0.69	inactive
92	MAJIN	-0.52	inactive
93	THUMPD2	1.93	inactive
94	THUMPD2	3.7	active
95	THUMPD2	3.52	active
96	THUMPD2	4.64	active
97	RASL10B	-0.65	inactive
98	RASL10B	-1.05	inactive
99	RASL10B	-0.61	inactive
100	RASL10B	-0.37	inactive
101	AZGP1	1.49	inactive
102	AZGP1	-0.46	inactive
103	AZGP1	-0.76	inactive
104	AZGP1	-1	inactive
105	LGALS9	-0.77	inactive
106	LGALS9	0.16	inactive
107	LGALS9	0.32	inactive
108	LGALS9	-0.23	inactive
109	PRAMEF2	0.82	inactive
110	PRAMEF2	0.19	inactive
111	PRAMEF2	0.5	inactive
112	PRAMEF2	1.06	inactive

In a second layout: entries from further up.
{"Gene": "SLC12A8", "TNF reporter robust z-score": -1.13, "outcome": "inactive"}
{"Gene": "SLC12A8", "TNF reporter robust z-score": -0.64, "outcome": "inactive"}
{"Gene": "MACROD1", "TNF reporter robust z-score": -0.42, "outcome": "inactive"}
{"Gene": "MACROD1", "TNF reporter robust z-score": -0.4, "outcome": "inactive"}
{"Gene": "MACROD1", "TNF reporter robust z-score": 0.26, "outcome": "inactive"}
{"Gene": "MACROD1", "TNF reporter robust z-score": 0.83, "outcome": "inactive"}
{"Gene": "UQCRQ", "TNF reporter robust z-score": -0.3, "outcome": "inactive"}
{"Gene": "UQCRQ", "TNF reporter robust z-score": 0.13, "outcome": "inactive"}
{"Gene": "UQCRQ", "TNF reporter robust z-score": 0.37, "outcome": "inactive"}
{"Gene": "UQCRQ", "TNF reporter robust z-score": 0.31, "outcome": "inactive"}
{"Gene": "BAG4", "TNF reporter robust z-score": -0.44, "outcome": "inactive"}
{"Gene": "BAG4", "TNF reporter robust z-score": 0.95, "outcome": "inactive"}
